We go through 15 compounds from PubChem BioAssay AID324 (DTP/NCI, 2004).

For this test, the system named is CD2F1 mice, AMSA-resistant P388 leukemia ip, median survival T/C. Nature of the test: NCI In Vivo Anticancer Drug Screen. Data for tumor model P388 Leukemia resistant to AMSA; NSC 249992 (intraperitoneal) in CD2F1 (CDF1) mice. The following applies: T/C endpoint: median survival time, higher T/C = longer survival. On the procedure:
The antitumor activity of compounds was measured in mice bearing transplantable tumors. Survival or tumor size were measured and the results are expressed as the measurement made in the treated group (T) divided by the measurement made in the vehicle treated control group (C). The tumor model used in this assay is P388 Leukemia resistant to AMSA; NSC 249992 (intraperitoneal) in CD2F1 (CDF1) mice

The mark [1] stands for this setting: dose: 12.0 mg/kg/injection, schedule: Q04DX003 (ip), vehicle: water.
Setting [2] is: dose: 3.6 mg/kg/injection, schedule: Q04DX002 (ip), vehicle: saline.
[3] abbreviates: dose: 10.0 mg/kg/injection, schedule: Q04DX002 (ip), vehicle: saline.
[4] abbreviates: dose: 0.36 mg/kg/injection, schedule: Q04DX003 (ip), vehicle: saline + alcohol.
Setting [5] is: dose: 0.6 mg/kg/injection, schedule: Q04DX003 (ip), vehicle: saline + alcohol.

The list shows only some results of the screen, not a fair sample: it gathers tests that were run many times, whatever their T/C, doses with no T/C, and many T/C values between a quarter and a half above the control. Further doses and runs are listed elsewhere. T/C: endpoint of the treated group in % of that of the vehicle group. Some doses have a count of surviving animals in place of a T/C: the source files T/C as zero there, which appears to mark a toxic dose or a test without result, not a measured value. Some survivor counts are full or nearly so, which does not show that the dose was tolerated: survival well below the control is almost never listed, so the zero probably covers shortened survival too. Counts of survivors are from the toxicity check (mostly the fifth day) where no day follows; animals may have died later. Schedules are NCI's codes, read here as Q, the interval in days (D) or hours (H), X, the number of doses. Some doses were run more than once; their values stand side by side, smallest first. For survival time, this PubChem deposit counts one and a half times the control or more as active, and values a quarter to a half above the control carry no call in these data; other NCI protocols may use other cut-offs. Some T/C values carry the count of animals alive at the toxicity check (mostly the fifth day); without a count, all were alive then.

With `COc1cc(NS(C)(=O)=O)ccc1Nc1c2ccccc2nc2ccccc12`, the survivor count is reported as 7 of 8 (dose: 0.52 mg/kg/injection, schedule: Q01DX009 (ip), vehicle: other); 8 of 8 (dose: 0.86 mg/kg/injection, schedule: Q01DX009 (ip), vehicle: other); 8 of 8 (dose: 1.44 mg/kg/injection, schedule: Q01DX009 (ip), vehicle: other); 8 of 8 (dose: 2.4 mg/kg/injection, schedule: Q01DX009 (ip), vehicle: other); 8 of 8 (dose: 4.0 mg/kg/injection, schedule: Q01DX009 (ip), vehicle: other); 8 of 8 (dose: 6.67 mg/kg/injection, schedule: Q01DX009 (ip), vehicle: other). The survivor count by setting is: under setting [1], 6 of 8; (dose: 20.0 mg/kg/injection, schedule: Q04DX003 (ip), vehicle: clinical formulation) 5 of 8; (dose: 20.0 mg/kg/injection, schedule: Q04DX003 (ip), vehicle: other) 4 of 8 and 8 of 8; (dose: 20.0 mg/kg/injection, schedule: Q04DX003 (ip), vehicle: water) 5 of 8 and 7 of 8. The T/C is 131 % of control (dose: 12.0 mg/kg/injection, schedule: Q04DX003 (ip), vehicle: clinical formulation); 126 % of control (dose: 12.0 mg/kg/injection, schedule: Q04DX003 (ip), vehicle: saline with Tween-80); 132 % of control (dose: 15.0 mg/kg/injection, schedule: Q04DX003 (ip), vehicle: saline with Tween-80); 142 % of control (dose: 40.0 mg/kg/injection, schedule: Q01DX001 (ip), vehicle: saline with Tween-80); 149 % of control (dose: 60.0 mg/kg/injection, schedule: Q01DX001 (ip), vehicle: saline with Tween-80).

Regarding `C[n+]1ccc(Nc2ccc(NC(=O)c3ccc(Nc4cc[n+](C)c5ccc(N)cc45)cc3)cc2)cc1`, the T/C (dose: 2.88 mg/kg/injection, schedule: Q04DX003 (ip), vehicle: water) was 147 % of control. In addition, under “dose: 13.3 mg/kg/injection, schedule: Q04DX003 (ip), vehicle: water”, the survivor count is listed as 6 of 8.

Turning to `COc1cccc2c1C(=O)c1c(O)c3c(c(O)c1C2=O)C[C@@](O)(C(C)=O)C[C@@H]3OC1CC(N(C)C)C(O)C(C)O1` (stereo partly drawn), the T/C (dose: 2.16 mg/kg/injection, schedule: Q04DX003 (ip), vehicle: water) was 132 % of control.

Turning to `COc1cccc2c1C(=O)c1c(O)c3c(c(O)c1C2=O)C[C@@](O)(C(=O)CO)C[C@@H]3OC1CC(N)C(O)C(C)O1` (stereo partly drawn), the T/C by setting is: (dose: 1.62 mg/kg/injection, schedule: Q04DX003 (ip), vehicle: saline) 137 % of control; (dose: 2.16 mg/kg/injection, schedule: Q04DX002 (ip), vehicle: saline) 138 % of control; (dose: 2.7 mg/kg/injection, schedule: Q04DX003 (ip), vehicle: saline) 147 % of control; under setting [2], 138 % of control; (dose: 4.5 mg/kg/injection, schedule: Q04DX003 (ip), vehicle: saline) 126 % of control; (dose: 6.0 mg/kg/injection, schedule: Q04DX002 (ip), vehicle: saline) 137 % of control. Also, the T/C by setting is: (dose: 7.5 mg/kg/injection, schedule: Q04DX003 (ip), vehicle: saline, evaluated on day 30) 146 % of control; (dose: 7.5 mg/kg/injection, schedule: Q04DX003 (ip), vehicle: saline, evaluated on day 45) 141 % of control; under setting [3], 141 % of control. Moreover, the survivor count is reported as 8 of 8 under setting [2] and 8 of 8 under setting [3].

Take `CC1OC(OC2CC(O)(C(=O)CO)Cc3c(O)c4c(c(O)c32)C(=O)c2ccccc2C4=O)CC(N)C1O` (stereo not drawn): the T/C (dose: 0.36 mg/kg/injection, schedule: Q04DX003 (ip), vehicle: water) is 130 % of control.

Regarding `COC(=O)[C@@H]1c2cc3c(c(O)c2[C@@H](OC2OC(C)C(OC)C(C)(OC)C2OC)C[C@]1(C)O)C(=O)c1c(O)cc2c(c1C3=O)O[C@H]1O[C@]2(C)[C@H](O)[C@@H](N(C)C)[C@@H]1O` (stereo partly drawn), the survivor count (dose: 4.0 mg/kg/injection, schedule: Q04DX003 (ip), vehicle: clinical formulation) is 7 of 8.

In the case of `CC(=O)N(C)c1ccc(Nc2cc(C)[nH]c3ccc4ncnc4c23)cc1`, the survivor count runs as follows: (dose: 150.0 mg/kg/injection, schedule: Q04DX002 (ip), vehicle: saline) 3 of 8; (dose: 160.0 mg/kg/injection, schedule: Q04DX002 (ip), vehicle: saline) 6 of 8.

Take `CO[C@H]1Nc2c(ccc(C)c2O)C(=O)N2C=C(/C=C/C(N)=O)C[C@@H]12`: the T/C (dose: 0.13 mg/kg/injection, schedule: Q04DX003 (ip), vehicle: saline + alcohol) was 128 % of control; the T/C (dose: 0.22 mg/kg/injection, schedule: Q04DX003 (ip), vehicle: saline + alcohol, evaluated on day 30) is 126 % of control [7 of 8 alive]; the T/C (dose: 0.22 mg/kg/injection, schedule: Q04DX003 (ip), vehicle: saline + alcohol, evaluated on day 45) was 129 % of control; the T/C under setting [4] was 133 % of control; the T/C under setting [5] is 149 % of control. Besides, the survivor count by setting is: under setting [4], 8 of 8; under setting [5], 1 of 8; (dose: 1.0 mg/kg/injection, schedule: Q04DX003 (ip), vehicle: saline + alcohol) 0 of 8.

For the compound `CN(C)c1ccc(Nc2c3ccccc3nc3ccccc23)cc1`, the survivor count is 6 of 8 (dose: 120.0 mg/kg/injection, schedule: Q04DX003 (ip), vehicle: saline) and 0 of 8 (dose: 200.0 mg/kg/injection, schedule: Q04DX003 (ip), vehicle: saline).

For the compound `O=c1[nH]cc(F)c(=O)[nH]1`, the T/C (dose: 13.0 mg/kg/injection, schedule: Q04DX003 (ip), vehicle: saline) was 134 % of control.

Regarding `CCC1(O)CC2CN(CCc3c([nH]c4ccccc34)C(C(=O)OC)(c3cc4c(cc3OC)N(C)C3C(O)(C(N)=O)C(O)C5(CC)C=CCN6CCC43C65)C2)C1` (stereo not drawn) (tested in a mixture with another compound), the T/C reads like this: (dose: 0.11 mg/kg/injection, schedule: Q04DX003 (ip), vehicle: clinical formulation) 140 % of control; (dose: 0.18 mg/kg/injection, schedule: Q04DX003 (ip), vehicle: clinical formulation) 146 % of control; (dose: 0.3 mg/kg/injection, schedule: Q04DX003 (ip), vehicle: clinical formulation) 146 % of control.

On to `Cc1c2ccncc2c(C)c2c1[nH]c1ccccc12`, for which the survivor count (dose: 100.0 mg/kg/injection, schedule: Q04DX003 (ip), vehicle: water) is given as 6 of 8.

For the compound `COc1cccc2c1C(=O)c1c(O)c3c(c(O)c1C2=O)C[C@@](O)(C(=O)CO)C[C@@H]3OC1CC(NCc2ccccc2)C(O)C(C)O1` (stereo partly drawn), the T/C (dose: 6.48 mg/kg/injection, schedule: Q04DX003 (ip), vehicle: water) is 126 % of control; the T/C (dose: 10.8 mg/kg/injection, schedule: Q04DX003 (ip), vehicle: water) was 138 % of control; the T/C (dose: 18.0 mg/kg/injection, schedule: Q04DX003 (ip), vehicle: water) was 131 % of control.

For `CC(CN1CC(=O)NC(=O)C1)N1CC(=O)NC(=O)C1` (stereo not drawn), the T/C by setting is: (dose: 64.8 mg/kg/injection, schedule: Q04DX003 (ip), vehicle: saline) 130 % of control; (dose: 108.0 mg/kg/injection, schedule: Q04DX003 (ip), vehicle: saline) 135 % of control; (dose: 180.0 mg/kg/injection, schedule: Q04DX003 (ip), vehicle: saline) 140 % of control. Where the note is “dose: 500.0 mg/kg/injection, schedule: Q04DX003 (ip), vehicle: saline”, the survivor count is 8 of 8.

In the case of `CC[C@@]1(O)C[C@H](OC2CC(N(C)C)C(OC3CC(O)C(OC4CCC(=O)C(C)O4)C(C)O3)C(C)O2)c2c(cc3c(c2O)C(=O)c2c(O)ccc(O)c2C3=O)[C@H]1C(=O)OC` (stereo partly drawn), the T/C was 129 and 130 % of control (dose: 1.56 mg/kg/injection, schedule: Q04DX003 (ip), vehicle: water); 135 [7 of 8 alive] and 141 % of control (dose: 2.59 mg/kg/injection, schedule: Q04DX003 (ip), vehicle: water). Moreover, the survivor count under setting [1] is 8 of 8.
